Measurements taken from PMC5923212.
Residue numbers refer to the chain shown, from its start. No constants are given. Whether binding was seen depends on the method and setting. For part of these data: Binding calls can cover weak binding; strength is not graded here. For part of these data: Binding seen in cells or lysates may run through a third protein. For part of these data: Tags and fused reporters may be left off the sequences shown. Each block holds one molecule with its values, some of them ahead of it.

Protein sequences, listed by entry. Tags and fused reporters are not part of them. Lines headed by an entry give the natural chain unless they say otherwise; changes in a name come on top.
UniProt Q5SQI0: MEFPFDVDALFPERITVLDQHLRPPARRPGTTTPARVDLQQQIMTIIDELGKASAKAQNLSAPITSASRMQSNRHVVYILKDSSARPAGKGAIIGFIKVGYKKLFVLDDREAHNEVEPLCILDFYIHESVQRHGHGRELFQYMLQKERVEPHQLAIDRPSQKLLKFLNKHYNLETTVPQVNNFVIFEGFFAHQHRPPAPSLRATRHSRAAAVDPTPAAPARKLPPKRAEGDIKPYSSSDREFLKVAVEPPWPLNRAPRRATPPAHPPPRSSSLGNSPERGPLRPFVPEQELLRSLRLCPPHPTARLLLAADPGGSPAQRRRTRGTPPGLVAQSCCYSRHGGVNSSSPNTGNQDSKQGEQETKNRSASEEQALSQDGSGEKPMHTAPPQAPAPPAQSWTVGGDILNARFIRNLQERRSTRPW

Experiments:
[1] = biological target: T1, Flag-TAK1 kinase-dead (K63W) (UniProt O43318); test: co-IP; COS-7 cells transfected; immunoprecipitation with Flag antibody; lysis buffer 20 mM HEPES pH 7.4, 150 mM NaCl, 5 mM NaF, 1% NP-40; 6 h at 4 C; also after SB431542 (30 μM) or (5Z)-7-Oxozeaenol (20 μM) for 30 min
T1 sequence: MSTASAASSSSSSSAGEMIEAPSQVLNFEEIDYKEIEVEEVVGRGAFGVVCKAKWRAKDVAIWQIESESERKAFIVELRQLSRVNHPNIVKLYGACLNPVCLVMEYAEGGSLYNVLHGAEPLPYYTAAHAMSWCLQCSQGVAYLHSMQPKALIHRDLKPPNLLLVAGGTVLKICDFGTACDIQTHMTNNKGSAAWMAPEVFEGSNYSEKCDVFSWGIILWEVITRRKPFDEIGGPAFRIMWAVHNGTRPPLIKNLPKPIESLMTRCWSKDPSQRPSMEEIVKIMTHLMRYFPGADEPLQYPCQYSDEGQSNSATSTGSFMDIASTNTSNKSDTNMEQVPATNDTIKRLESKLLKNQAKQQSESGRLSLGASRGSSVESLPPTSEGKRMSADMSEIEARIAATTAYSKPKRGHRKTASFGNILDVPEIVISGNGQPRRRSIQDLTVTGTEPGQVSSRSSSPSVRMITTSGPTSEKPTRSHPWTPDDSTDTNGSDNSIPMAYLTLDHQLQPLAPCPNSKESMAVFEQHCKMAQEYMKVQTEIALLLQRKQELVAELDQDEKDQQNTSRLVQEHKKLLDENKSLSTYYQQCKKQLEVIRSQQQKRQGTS

Flag-TAK1 WT = biological target: T2, Flag-TAK1 WT (UniProt O43318); test: as above
T2 sequence: T1 sequence with W63K

[2] = biological target: T3, purified biotin-labeled TAK1 (UniProt O43318); test: pull-down; purified biotin-labeled TAK1 immobilized on streptavidin agarose, co-incubated with purified αTAT1; negative control with non-biotinylated TAK1; both purified
T3 sequence (chain, biotin label (site not stated)): T1 sequence with W63K

HA-αTAT1 WT = test: co-IP; COS-7 cells transfected; immunoprecipitation with HA antibody; lysis buffer 20 mM HEPES pH 7.4, 150 mM NaCl, 5 mM NaF, 1% NP-40; 6 h at 4 C
HA-αTAT1-Δ301 = test: as above
HA-αTAT1-Δ196 = HA-αTAT1-Δ196 (UniProt Q5SQI0); test: as above

binding [1]: binds | binding (Flag-TAK1 WT): binds
Molecule: HA-αTAT1 WT (enzyme)

binding [2]: binds
Molecule: purified αTAT1 (enzyme)

binding (HA-αTAT1 WT): binds | binding (HA-αTAT1-Δ301): binds | binding (HA-αTAT1-Δ196): no binding
B1: Flag-TAK1 WT (enzyme, UniProt O43318 1-606)
chain: T1 sequence with W63K
